Measured values reported in US20250136556A1, “NOVEL MODULATORS OF THE ARYL HYDROCARBON RECEPTOR AND METHODS OF USE THEREOF” (Allianthera (Suzhou) Biopharmaceutical Co., Ltd., priority 2021, published 2025).
Structures were worked out from names or drawings and are uncertain.

Sequences of proteins named here, by UniProt entry; tags and fusion partners are left off. Residues count along the entry.
UniProt P35869, 11-848 limits assumed: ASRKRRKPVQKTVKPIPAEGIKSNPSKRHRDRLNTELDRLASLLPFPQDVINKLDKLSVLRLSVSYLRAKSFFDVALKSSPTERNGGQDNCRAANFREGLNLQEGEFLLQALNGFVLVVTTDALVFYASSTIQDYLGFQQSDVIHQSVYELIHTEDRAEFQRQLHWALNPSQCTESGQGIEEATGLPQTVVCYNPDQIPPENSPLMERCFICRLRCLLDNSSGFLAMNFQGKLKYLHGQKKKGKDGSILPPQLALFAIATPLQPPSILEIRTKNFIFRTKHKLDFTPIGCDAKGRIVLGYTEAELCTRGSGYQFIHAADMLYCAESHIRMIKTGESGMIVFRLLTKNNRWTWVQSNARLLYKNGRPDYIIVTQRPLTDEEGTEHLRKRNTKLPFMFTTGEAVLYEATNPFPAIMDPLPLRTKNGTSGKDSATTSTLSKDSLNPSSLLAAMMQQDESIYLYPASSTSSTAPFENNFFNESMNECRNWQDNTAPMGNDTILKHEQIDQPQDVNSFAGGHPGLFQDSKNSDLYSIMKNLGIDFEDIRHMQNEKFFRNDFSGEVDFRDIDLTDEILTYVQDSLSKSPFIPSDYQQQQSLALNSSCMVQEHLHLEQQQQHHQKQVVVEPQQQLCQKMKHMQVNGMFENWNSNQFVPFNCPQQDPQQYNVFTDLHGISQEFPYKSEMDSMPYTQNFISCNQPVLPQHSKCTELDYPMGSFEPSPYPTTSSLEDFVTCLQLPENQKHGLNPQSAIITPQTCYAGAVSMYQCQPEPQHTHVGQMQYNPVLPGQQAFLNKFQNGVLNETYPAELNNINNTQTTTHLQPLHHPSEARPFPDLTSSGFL

What was measured:
[1] = target: Human Aryl Hydrocarbon Receptor (AHR) (Homo sapiens, UniProt P35869); test: AHR agonist reporter assay in human cell line (INDIGO luciferase reporter); type: cell-based; settings: read-out: AHR abEC50; reporter cells, 24 hours incubation, second line of cell;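 also: firefly luciferase luminescence read on a plate reader, values normalized against positive and negative controls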
[2] = test system: IL-6 gene expression in human primary M1 macrophage cells; test: AHR-regulated IL-6 inhibition in human primary M1 macrophage (qPCR); type: cell-based; settings: read-out: M1 assay IL6 -IC50, LPS/IFN-gamma/GM-CSF, 24 hours
Protocol: Human M1 macrophage was differentiated from PBMC. Briefly, at day 1, monocytes were isolated from human PBMC using EasySe Human Monocyte Enrichment Kit without CD16 Depletion (Stemcell, 19058). The isolated monocytes were seeded at 3×10^7 cells in 15 cm dish using 30 ml medium containing 50 ng/ml GM-CSF (R&D, 215-GM-050/CF). At day 5, 30 ml fresh medium containing 50 ng/ml GM-CSF was added. At day 8, 1.5×10^5 cells/well were re-seeded into 24 wells plate, and 500 ul medium containing 10 ng/ml LPS (Sigma, L7770), 20 ng/ml IFN-gamma (PeproTech, 300-02), 50 ng/ml GM-CSF and the test compounds was added. […] The IL-6 expression was inhibited with AHR agonists described in literature as the positive inhibition control, alternatively the un-stimulated cells were used as the negative inhibition control. […] The primers for human GAPDH (F: […]; R: […]) and human IL-6 (F: […]; R: […]) were used to analyze fold expression of IL-6 of GAPDH by quantitative PCR.

Compound	EC50 [1]	IC50 [2]
Cc1ccnc2c(-c3cc(O)c(C(C)C)c(O)c3)ccnc12	> 100 nM	–
CC(C)c1c(O)cc(-c2ccc3cnccc3c2F)cc1O	2.47 nM	1.18 nM
CC(C)c1c(O)cc(-c2cc(F)c3cnccc3c2)cc1O	1.29 nM	3.11 nM
CC(C)c1c(O)cc(-c2ccc3cnc(N)cc3c2)cc1O	> 100 nM	–
